Measurements as given in PubChem BioAssay AID540276 (National Center for Advancing Translational Sciences (NCATS), 2011).
In all, about 300,000 compounds went through this assay and about 5,400 (1.8%) were called active. Inconclusive results, whose numbers are uncertain, are shown with a selection of clear calls. Calls follow the shape of the full dose curve; tested in HEK293 cells. Potencies of inconclusive entries are doubtful fits and often do not repeat.

assay: qHTS for inhibitors of binding or entry into cells for Marburg Virus; details: Marburg virus pseudotyped entry inhibition, cell reporter; activity change, negative = inhibition: at 37.8 µM (top of the series) unless noted
% is scaled to controls: 0 for no effect and ±100 for the full control effect; potency is read from the fitted curve at half-maximal effect.

Structure (SMILES) | Potency | activity change, negative = inhibition
Fc1cccc(Nc2nc(-c3ccncc3)nc3ccccc23)c1 | inconclusive: 3.98 µM [inhibitor, full curve] | –
Cc1ccc2c(C)c(C(=O)N(Cc3cccs3)C3CCS(=O)(=O)C3)oc2c1 (stereo not given) | inconclusive: 17.8 µM [inhibitor, partial curve, poor fit] | –
Cc1ccc(-c2noc(CNS(=O)(=O)c3ccc(F)cc3)n2)cc1 | inconclusive: 6.31 µM [activator, single point] | –
COCCNS(=O)(=O)c1cc(-c2nn(C)c(=O)c3ccccc23)ccc1C | inconclusive: 0.501 µM [activator, full curve, poor fit] | –
O=C(CNC(=S)NC(=O)c1cccs1)c1ccccc1 | inactive | –
CCN1CCN(Cc2nnnn2C(C)(C)C)CC1 | inconclusive: 14.1 µM [activator, single point] | –
c1ccc2c(c1)Nc1cc3ccccc3cc1O2 | inconclusive: 2 µM [activator, partial curve, poor fit] | –
Cc1ccc(S(=O)(=O)N2CCC(C(=O)N/N=C/c3cccnc3)CC2)cc1 | inconclusive: 35.5 µM [activator, partial curve, poor fit] | –
CCN(CC)CCn1c(NC(=O)c2ccc(Cl)cc2)nc2ccccc21 | inconclusive: 11.6 µM [inhibitor, partial curve] | –
CCC1CCCCN1C(=O)CSc1nc2c([nH]c3ccccc32)c(=O)n1C (stereo not given) | inconclusive: 16.4 µM [inhibitor, partial curve, poor fit] | –
CCOc1ccc(NC(=O)CCC(=O)N/N=C2\CCCc3ccccc32)cc1 | inactive | –
Cc1ccc(N2C(=O)/C(=C\c3ccc(C(C)C)cc3)N=C2SC2CCOC2=O)cc1 (stereo not given) | active: 6.31 µM | –
FC(F)(F)c1ccccc1CN1CCN(C2CCCCCC2)CC1 | active: 8.2 µM | –
Cn1c(=O)n(CC(N)=O)c2ccccc21 | inactive | –
Cc1ccc(/C=N/Nc2nncn2N)cc1 | inconclusive: 15.8 µM [inhibitor, single point] | –
Cc1ccc2occ(CC(=O)N(Cc3ccc(Cl)cc3)C3CCS(=O)(=O)C3)c2c1 (stereo not given) | inconclusive: 35.5 µM [inhibitor, single point] | –
Cn1cc(C2=C(c3ccc(Cl)cc3Cl)C(=O)NC2=O)c2ccccc21 | inconclusive: 0.112 µM [inhibitor, full curve, poor fit] | –
COc1ccc(NC(=O)CN(C)C(=O)c2cccc3ccccc23)cc1 | inconclusive: 14.1 µM [activator, partial curve, poor fit] | –
CCOC(=O)N1CCN(C(=O)Cn2c(=O)sc3ccccc32)CC1 | inconclusive: 0.58 µM [inhibitor, partial curve, poor fit] | –
CCCCNCc1cc(OCC)c(OCC)cc1Br | inconclusive: 35.5 µM [inhibitor, single point] | –
COc1ccc(C)cc1NC(=O)C(=O)c1cn(CC(=O)N2CCCC2)c2ccccc12 | inconclusive: 5.62 µM [inhibitor, single point] | –
CCc1nnc(NC(=O)CSc2nnnn2-c2cccc(C(=O)OC)c2)s1 | inconclusive: 6.31 µM [inhibitor, single point] | –
O=C(NCCCN1CCOCC1)c1ccc(CSc2ccc(Cl)cc2)cc1 | inconclusive: 25.1 µM [inhibitor, single point] | –
CCCCN(CCCC)CCNC(=O)Cn1nc(C)n2c(cc3sccc32)c1=O | inactive | –

Structure (SMILES) | Potency | activity change, negative = inhibition
COc1cc2c(cc1OC)C(c1cccs1)N(C(=S)NC(C)C)CC2 (stereo not given) | inactive | –
C=CCOC(=O)C(C(=O)CC)C(NC(=O)OC)c1ccc(F)cc1 (stereo not given) | inactive | –
COc1cccc(CNn2cnnc2)c1O | inactive | –
COc1ccc(C(=O)C[n+]2ccccc2/C=N/O)cc1 | inconclusive: 0.562 µM [activator, full curve, poor fit] | –
O=C(Nc1ccccc1Cl)Nc1ccnn1C1CCN(C(=O)c2cscn2)CC1 | inconclusive: 35.5 µM [activator, partial curve, poor fit] | –
CCN(CCCNC(=O)CCNC(=O)Cn1cnc2ccccc2c1=O)c1ccccc1 | inconclusive: 35.5 µM [inhibitor, single point] | –
COc1ccccc1OCCCn1cc(C#N)c2ccccc21 | inconclusive: 3.55 µM [activator, single point] | –
O=C(c1ccc(N2CCOCC2)nc1)N1CCCCC1 | inconclusive: 1.03 µM [inhibitor, full curve, poor fit] | –
COc1ccc(-c2cc(=O)[nH]c(NCc3ccccc3)n2)cc1 | inconclusive: 29.1 µM [inhibitor, single point] | –
CCCCCCN1C[C@@H](n2cc(-c3ccc(F)cc3)nn2)[C@H](O)C[C@H]1c1ccccc1 | active: 15.8 µM | –
Cc1cccc(/C=N/NC(=O)C(C)Nc2cccc3ccccc23)n1 (stereo not given) | inactive | –
CCN(C(=O)c1cc([N+](=O)[O-])ccc1NCc1cccnc1)c1ccccc1 | inconclusive: 22.4 µM [inhibitor, partial curve, poor fit] | –
Cc1ccccc1C(=O)Nc1scc(-c2ccc(Br)cc2)c1C(=O)O | inconclusive: 6.31 µM [inhibitor, partial curve, poor fit] | –
CCOc1ccc(C2C(C#N)=C(N)Oc3cc(C)[nH]c(=O)c32)cc1OC (stereo not given) | inactive | –
CCc1ccc(NC(=O)CO/N=C(\C)c2cc3ccccc3o2)cc1 | inconclusive: 22.4 µM [inhibitor, single point] | –
COc1ccc(/C=C/CN2CCN(Cc3ccc(F)cc3)C(CCO)C2)cc1 (stereo not given) | inconclusive: 22.4 µM [inhibitor, single point] | –
CC1=Nn2c(nnc2-c2ccc(F)cc2)SC1 | inactive | –
Cc1ccc(-c2c(NC(=O)C(C)C)n(C)c3ccccc3c2=O)cc1 | inactive | –
OCCNc1nc(-c2cccnc2)nc2ccccc12 | inactive | –
O=C(Nc1ccc(Cl)cn1)c1ccc([N+](=O)[O-])o1 | inconclusive: 11.2 µM [inhibitor, partial curve] | –
C=CCc1c(C)nc(SCCC)[nH]c1=O | inconclusive: 1.83 µM [inhibitor, partial curve, poor fit] | –
O=C(c1ccccc1)n1nc(-c2ccccc2)nc1NCc1ccc(F)cc1 | inactive | –
Cc1cccnc1NC(=S)NCCc1ccccc1 | inconclusive: 15.8 µM [inhibitor, single point] | –
CC1CCCN(CCCNC(=O)c2cc3c(s2)-c2ccccc2OC3)C1 (stereo not given) | active: 3.16 µM | –

Structure (SMILES) | Potency | activity change, negative = inhibition
Nc1nc(N2CCN(c3ccccc3)CC2)n[nH]1 | inconclusive: 5.01 µM [activator, single point] | –
N=c1c(C(=O)NCCc2ccccc2)cc2c(=O)n3ccccc3nc2n1Cc1ccco1 | inconclusive: 35.5 µM [inhibitor, partial curve, poor fit] | –
Cc1ccc(NC(=O)Nc2cnccn2)cc1 | – | inconclusive: 52.7% [activator] [at 46.1 µM]
O=C(CCSCc1ccccc1Cl)NC1CCCC1 | inconclusive: 0.562 µM [inhibitor, single point] | –
O=C(Cn1nnc(-c2cc(Cl)ccc2-n2cnnn2)n1)N1CCCc2ccccc21 | inconclusive: 22.4 µM [inhibitor, single point] | –
CCN(CC)CCN1C(=O)C(O)=C(C(=O)c2ccc(C)o2)C1c1ccccn1 (stereo not given) | inactive | –
Cn1cccc1/C=N/NC(=O)c1cccnc1 | inactive | –
CNS(=O)(=O)c1ccc(N2CCCC2=O)c([N+](=O)[O-])c1 | inconclusive: 1.3 µM [inhibitor, partial curve, poor fit] | –
CC(=O)c1c(C)[nH]c(C(=O)NC2=NCCS2)c1C | inactive | –
CCOc1ccc(N(C)c2ccc(/C=C3/SC(=S)NC3=O)cc2)cc1 | inconclusive: 12.6 µM [inhibitor, single point] | –
O=C(COC(=O)CC1CCCC1)Nc1ccc(OC(F)F)cc1 | inconclusive: 4.47 µM [activator, full curve, poor fit] | –
COc1ccc(C(CC(=O)c2ccccc2)CC(=O)c2ccccc2)cc1 | inconclusive: 1.26 µM [inhibitor, partial curve, poor fit] | –
CSc1ncccc1C(=O)N(C)CC(=O)Nc1ccc(Cl)c(C(F)(F)F)c1 | inconclusive: 0.794 µM [inhibitor, full curve, poor fit] | –
O=C(C1CCN(c2nc(-c3ccccc3)nc3c2CCC3)CC1)N1CCC(O)CC1 | inactive | –
c1csc(-c2noc(CN3CCOCC3)n2)c1 | inconclusive: 2.51 µM [activator, full curve] | –
OCC1(Cc2ccccc2)CCCN(Cc2cnn(-c3ccccc3)c2)C1 (stereo not given) | inconclusive: 7.94 µM [inhibitor, partial curve, poor fit] | –
Nc1ncnc2c1ncn2[C@@H]1O[C@H](C(=O)NC2CC2)[C@H](O)[C@H]1O | inactive | –
COC(=O)C1=C(C)N(C)C(=S)NC1c1c(OC)ccc2ccccc12 (stereo not given) | inconclusive: 2.82 µM [inhibitor, single point] | –
Cn1cc(CN2CCCC(C(=O)c3cccs3)C2)c(-c2cccc(Cl)c2)n1 (stereo not given) | inconclusive: 8.91 µM [inhibitor, partial curve, poor fit] | –
O=C(CN1C(=O)NC2(CCc3ccccc32)C1=O)Nc1cc(C(F)(F)F)ccc1N1CCOCC1 (stereo not given) | inconclusive: 35.5 µM [inhibitor, single point] | –
O=S(=O)(NCc1cccnc1)c1cccn1-c1ncc(C(F)(F)F)cc1Cl | inconclusive: 8.91 µM [inhibitor, partial curve, poor fit] | –
Cc1ccccc1OCC(=O)NNC(=O)C1CCN(c2ncnc3sc(C)c(C)c23)CC1 | inconclusive: 12.6 µM [inhibitor, partial curve, poor fit] | –

5 entries drawn at random from those above:
Structure (SMILES) | Potency | activity change, negative = inhibition
Nc1nc(N2CCN(c3ccccc3)CC2)n[nH]1 | inconclusive: 5.01 µM [activator, single point] | –
CC(=O)c1c(C)[nH]c(C(=O)NC2=NCCS2)c1C | inactive | –
COC(=O)C1=C(C)N(C)C(=S)NC1c1c(OC)ccc2ccccc12 (stereo not given) | inconclusive: 2.82 µM [inhibitor, single point] | –
Nc1ncnc2c1ncn2[C@@H]1O[C@H](C(=O)NC2CC2)[C@H](O)[C@H]1O | inactive | –
Cc1ccccc1OCC(=O)NNC(=O)C1CCN(c2ncnc3sc(C)c(C)c23)CC1 | inconclusive: 12.6 µM [inhibitor, partial curve, poor fit] | –
